Test [1] has as its target T1, MBP-AGO1_(366-1048) containing the PAZ-MID-PIWI domains (Arabidopsis thaliana) (UniProt O04379).
T1 sequence: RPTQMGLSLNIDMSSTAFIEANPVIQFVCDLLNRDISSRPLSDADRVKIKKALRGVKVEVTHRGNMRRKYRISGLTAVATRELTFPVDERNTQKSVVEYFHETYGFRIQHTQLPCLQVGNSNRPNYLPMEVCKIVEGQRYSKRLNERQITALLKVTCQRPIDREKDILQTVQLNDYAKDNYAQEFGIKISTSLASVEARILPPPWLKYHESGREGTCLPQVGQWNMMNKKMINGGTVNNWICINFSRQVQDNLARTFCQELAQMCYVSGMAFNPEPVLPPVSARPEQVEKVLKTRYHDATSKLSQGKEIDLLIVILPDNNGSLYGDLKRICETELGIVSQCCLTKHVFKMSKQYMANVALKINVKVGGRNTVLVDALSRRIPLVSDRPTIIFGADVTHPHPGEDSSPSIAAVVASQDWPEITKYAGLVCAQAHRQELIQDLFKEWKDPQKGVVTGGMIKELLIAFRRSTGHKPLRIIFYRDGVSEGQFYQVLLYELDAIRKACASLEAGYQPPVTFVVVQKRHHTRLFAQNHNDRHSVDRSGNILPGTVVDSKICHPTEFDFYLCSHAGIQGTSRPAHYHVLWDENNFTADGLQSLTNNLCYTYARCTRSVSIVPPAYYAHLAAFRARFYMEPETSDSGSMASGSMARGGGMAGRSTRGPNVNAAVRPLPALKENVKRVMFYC
Briefly: pull-down; 2 mg of MBP-AtAGO1_(366-1048) or MBP mixed with 4 mg of 6×His-P1 fragment in 30mM TRIS pH 7.5, 150mM NaCl, 5mM MgCl2 and 10% glycerol for 1 hour at 4°C; MBP-tagged proteins isolated on maltose resin, washed three times, eluted with SDS loading buffer; Western blot with anti-MBP and anti-HIS; both purified. On the technique in general: Immunoblotting shows a protein as a band on a membrane.

For test [2], the target named is T2, 6×myc-tagged AGO1 of Arabidopsis thaliana (myc-AGO1) (Arabidopsis thaliana) (UniProt O04379).
T2 sequence: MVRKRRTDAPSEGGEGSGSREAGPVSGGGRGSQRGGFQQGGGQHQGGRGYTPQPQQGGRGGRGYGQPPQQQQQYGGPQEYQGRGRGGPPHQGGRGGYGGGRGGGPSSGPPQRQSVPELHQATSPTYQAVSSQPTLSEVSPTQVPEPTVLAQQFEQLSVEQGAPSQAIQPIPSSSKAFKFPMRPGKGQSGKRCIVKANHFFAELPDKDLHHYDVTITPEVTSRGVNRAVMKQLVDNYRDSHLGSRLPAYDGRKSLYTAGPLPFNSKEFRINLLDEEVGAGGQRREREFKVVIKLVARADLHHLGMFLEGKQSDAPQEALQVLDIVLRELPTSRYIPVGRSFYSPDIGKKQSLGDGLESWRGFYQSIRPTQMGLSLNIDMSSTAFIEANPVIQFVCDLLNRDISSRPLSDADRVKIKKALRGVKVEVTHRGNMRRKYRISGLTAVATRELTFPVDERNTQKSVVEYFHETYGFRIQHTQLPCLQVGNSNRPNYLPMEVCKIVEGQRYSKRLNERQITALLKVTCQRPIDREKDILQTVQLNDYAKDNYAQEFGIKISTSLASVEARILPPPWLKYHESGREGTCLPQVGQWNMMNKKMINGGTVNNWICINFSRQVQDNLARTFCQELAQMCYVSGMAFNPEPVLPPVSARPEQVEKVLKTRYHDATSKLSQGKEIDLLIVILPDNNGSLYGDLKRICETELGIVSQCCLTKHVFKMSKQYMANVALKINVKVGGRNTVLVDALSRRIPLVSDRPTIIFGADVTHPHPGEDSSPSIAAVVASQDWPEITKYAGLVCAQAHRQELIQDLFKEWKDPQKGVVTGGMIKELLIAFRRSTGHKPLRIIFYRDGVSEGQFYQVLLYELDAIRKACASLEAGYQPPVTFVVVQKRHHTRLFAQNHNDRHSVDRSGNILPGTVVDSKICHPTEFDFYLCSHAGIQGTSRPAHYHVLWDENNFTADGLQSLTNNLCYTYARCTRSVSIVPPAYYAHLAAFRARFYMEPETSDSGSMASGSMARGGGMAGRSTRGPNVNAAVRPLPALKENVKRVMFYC
Description: co-IP; 6×myc-AtAGO1 precipitated with anti-myc beads from extracts of agroinfiltrated N. benthamiana leaves expressing myc-AGO1 and GFP-IR with HA-P1 or HA-P1_(1-383); IP buffer 30 mM TRIS pH 7.5, 150 mM NaCl, 5 mM MgCl2, 5 mM DTT, 10% glycerol, 1 hour at 4°C; Western blot.

Test [3] deals with N-terminally HA-tagged SPMMV P1 (HA-P1) (Sweet potato mild mottle virus (SPMMV), African isolate 130). Description: co-IP; HA-tagged proteins precipitated with anti-HA beads from extracts of agroinfiltrated N. benthamiana leaves (3 dpi) co-expressing 6×myc-AtAGO1 and GFP-IR; IP buffer 30 mM TRIS pH 7.5, 150 mM NaCl, 5 mM MgCl2, 5 mM DTT, 10% glycerol, 1 hour at 4°C; Western blot with anti-myc and anti-HA.

No constants are given. Whether binding was seen depends on the method and setting. Binding can be weak; no strength is given. Where a sequence is shown, tags or fusion partners need not be part of it. For some of these results: Binding seen in cells or lysates may run through a third protein.

For the molecule “6×His-P1_(1-383) N-terminal fragment of wt P1 (domain or fragment)”, the binding result in test [1] is listed as “binds”.

Regarding HA-P1_(1-383) (domain or fragment), the binding entry in test [2] is listed as “binds”.

On to N-terminally HA-tagged SPMMV P1 (HA-P1), for which the binding result in test [2] was “binds”.

B1: 6×myc-tagged AGO1 of Arabidopsis thaliana (myc-AGO1) (protein, UniProt O04379 1-1048)
chain: T2 sequence
Consider B1, for which, in test [3], the binding result is listed as “binds”.

These data come from article PMC2904775.
